Test system: Male mice
Test: Mouse writhing test (acetic acid 0.5% i.p.)
Settings: 8 mg/kg i.p., each experiment
Method: Male mice weighing 23-28 g were used in this test. Mice were injected with acetic acid (0.5% i.p.). This treatment induces a recognizable writhing response in control animals. The number of writhes is counted for 10 minutes beginning 5 minutes after injection of acetic acid. Ten mice were studied per group. The test was performed blind. Loxapine and amoxapine (dispersed in 0.2% hydroxypropylmethylcellulose, then dissolved in saline) were evaluated at five doses, administered i.p. 30 minutes before acetic acid, and compared with a vehicle control (0.2% hydroxypropylmethylcellulose in saline) group. Dosage rates for loxapine were 0.125, 0.25, 0.5, 1 and 2 mg/kg. Dosage rates for amoxapine were 1, 2, 4, 8 and 16 mg/kg. […] The data were analyzed by comparing the treated groups with the vehicle control using Mann Whitney U tests.

CN1CC[C@]23c4c5ccc(O)c4O[C@H]2[C@@H](O)C=C[C@H]3[C@H]1C5 [Morphine] was tested, and the “Effect on writhing induced by acetic acid” value was “markedly antagonized writhing”.

Reference: patent US8288372B2, “Method for treating headache with loxapine” (Alexza Pharmaceuticals, Inc., priority 2002, dated 2012)
